{"source": "PubChem BioAssay AID1259425 (University of Nebraska Medical Center, 2018)", "aim": "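Seek colon cancer weak points whose silencing resembles KSR1 loss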 (primary screen)", "system": "HCT116 human colon cancer cells", "reagents": "siRNA pool against human genes, 50 nM siRNA", "measured": "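mRNA of six signature genes measured together by branched-DNA assay after 50 nM siRNA pool, blank removed, divided by geometric mean of two housekeeping genes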", "reading the numbers": "BNIP3L mRNA: higher = more BNIP3L transcript after knockdown", "note": "Here is an unselected part of about 14,000 reagents. Not all columns of the deposit are shown. Reagent sequences are not shown. The record does not give: the time to read-out."}
{"gene": "ZBED3 (GeneID 84327)", "PubChem SID": "SID364003948", "BNIP3L mRNA, set 1": 0.246}
{"gene": "SLA2 (GeneID 84174)", "PubChem SID": "SID364003832", "BNIP3L mRNA, set 1": 0.17}
{"gene": "CPEB3 (GeneID 22849)", "PubChem SID": "SID363999192", "BNIP3L mRNA, set 1": 0.132}
{"gene": "MAD1L1 (GeneID 8379)", "PubChem SID": "SID363994633", "BNIP3L mRNA, set 1": 0.207}
{"gene": "TEX13A (GeneID 56157)", "PubChem SID": "SID364003564", "BNIP3L mRNA, set 1": 0.2}
{"gene": "RBM28 (GeneID 55131)", "PubChem SID": "SID364000762", "BNIP3L mRNA, set 1": 0.157}
{"gene": "HSPA2 (GeneID 3306)", "PubChem SID": "SID364002268", "BNIP3L mRNA, set 1": 0.105}
{"gene": "PLCG2 (GeneID 5336)", "PubChem SID": "SID363993829", "BNIP3L mRNA, set 1": 0.164}
{"gene": "BSPRY (GeneID 54836)", "PubChem SID": "SID364000448", "BNIP3L mRNA, set 1": 0.0699}
{"gene": "UBTF (GeneID 7343)", "PubChem SID": "SID363998672", "BNIP3L mRNA, set 1": 0.178}
{"gene": "TAF15 (GeneID 8148)", "PubChem SID": "SID363994585", "BNIP3L mRNA, set 1": 0.113}
{"gene": "HDGF (GeneID 3068)", "PubChem SID": "SID363995472", "BNIP3L mRNA, set 1": 0.15}
{"gene": "LAMC3 (GeneID 10319)", "PubChem SID": "SID363996906", "BNIP3L mRNA, set 1": 0.132}
{"gene": "KIF14 (GeneID 9928)", "PubChem SID": "SID363999163", "BNIP3L mRNA, set 1": 0.0818}
{"gene": "UBE2L3 (GeneID 7332)", "PubChem SID": "SID363994462", "BNIP3L mRNA, set 1": 0.0736}
{"gene": "RHOBTB2 (GeneID 23221)", "PubChem SID": "SID363999347", "BNIP3L mRNA, set 1": 0.143}
{"gene": "C9orf40 (GeneID 55071)", "PubChem SID": "SID364000696", "BNIP3L mRNA, set 1": 0.0747}
{"gene": "AK1 (GeneID 203)", "PubChem SID": "SID363991799", "BNIP3L mRNA, set 1": 0.117}
{"gene": "DDX19A (GeneID 55308)", "PubChem SID": "SID364000983", "BNIP3L mRNA, set 1": 0.0944}
{"gene": "LMAN1L (GeneID 79748)", "PubChem SID": "SID364002199", "BNIP3L mRNA, set 1": 0.175}
{"gene": "SRL (GeneID 6345)", "PubChem SID": "SID364005251", "BNIP3L mRNA, set 1": 0.12}
{"gene": "SCN2B (GeneID 6327)", "PubChem SID": "SID363995559", "BNIP3L mRNA, set 1": 0.21}
{"gene": "LY6G6D (GeneID 58530)", "PubChem SID": "SID364002124", "BNIP3L mRNA, set 1": 0.243}
{"gene": "JPH2 (GeneID 57158)", "PubChem SID": "SID364001693", "BNIP3L mRNA, set 1": 0.156}
{"gene": "SLC18A3 (GeneID 6572)", "PubChem SID": "SID363994203", "BNIP3L mRNA, set 1": 0.107}
{"gene": "GFAP (GeneID 2670)", "PubChem SID": "SID363993264", "BNIP3L mRNA, set 1": 0.14}
{"gene": "MRPL14 (GeneID 64928)", "PubChem SID": "SID364003770", "BNIP3L mRNA, set 1": 0.123}
{"gene": "HOXB4 (GeneID 3214)", "PubChem SID": "SID364002679", "BNIP3L mRNA, set 1": 0.0801}

Quoted from above for reference:
{"gene": "AK1 (GeneID 203)", "PubChem SID": "SID363991799", "BNIP3L mRNA, set 1": 0.117}
{"gene": "DDX19A (GeneID 55308)", "PubChem SID": "SID364000983", "BNIP3L mRNA, set 1": 0.0944}
{"gene": "LMAN1L (GeneID 79748)", "PubChem SID": "SID364002199", "BNIP3L mRNA, set 1": 0.175}
{"gene": "SRL (GeneID 6345)", "PubChem SID": "SID364005251", "BNIP3L mRNA, set 1": 0.12}
